This note sets out measurements from article PMC6988281.

Amino acid sequences for entries named in this document (tags omitted).
UniProt Q9C030: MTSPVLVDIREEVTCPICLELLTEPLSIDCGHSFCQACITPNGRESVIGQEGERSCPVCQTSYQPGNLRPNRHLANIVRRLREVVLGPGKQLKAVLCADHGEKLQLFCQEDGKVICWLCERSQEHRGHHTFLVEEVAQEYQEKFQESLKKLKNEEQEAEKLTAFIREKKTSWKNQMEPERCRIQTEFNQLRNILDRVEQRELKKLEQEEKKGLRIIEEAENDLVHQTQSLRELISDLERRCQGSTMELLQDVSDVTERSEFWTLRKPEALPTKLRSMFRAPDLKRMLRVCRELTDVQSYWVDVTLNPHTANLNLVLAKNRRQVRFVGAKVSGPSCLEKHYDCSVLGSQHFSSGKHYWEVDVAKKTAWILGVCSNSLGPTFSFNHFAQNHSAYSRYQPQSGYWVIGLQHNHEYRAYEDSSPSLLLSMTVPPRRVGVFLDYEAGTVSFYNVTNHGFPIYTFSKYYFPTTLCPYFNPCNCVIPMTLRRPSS
UniProt P78543: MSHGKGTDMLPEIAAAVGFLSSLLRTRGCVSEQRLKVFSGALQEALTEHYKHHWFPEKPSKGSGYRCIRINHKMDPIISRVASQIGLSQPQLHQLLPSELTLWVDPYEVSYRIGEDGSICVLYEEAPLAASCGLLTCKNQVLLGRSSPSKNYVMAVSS

For assay [1], the target named is TRIM6 (endogenous, HCT-8 and HCT116 cells) (human (endogenous in HCT-8 and HCT116)) (UniProt Q9C030). In words: co-IP; HCT-8 and HCT116 lysates (RIPA buffer) with anti-TRIM6, anti-TIS21 or control IgG 2 h at 4 °C, then protein A/G Plus agarose 2 h at 4 °C; western blotting.
A further assay addresses GST-tagged TRIM6 (UniProt Q9C030). In words: pull-down; GST fusion proteins or GST from E. coli on glutathione 4B beads, incubated with HCT-8 cell lysate 2 h at 4 °C, washed three times with RIPA buffer; western blotting; only the target purified.
The target of the next assay is GST-tagged TIS21 (UniProt P78543). The description is as above.

Results are given in words; binding and its absence hold for the method and conditions named. In cells and extracts the contact can be indirect. Some binding calls cover weakened binding; strength is not graded here.

On to “TIS21 (endogenous, HCT-8 and HCT116 cells) (from UniProt P78543 1-158)”, for which the binding result (in assay [1]; in the assay with GST-tagged TRIM6) was “binds” in each case.
As for “TRIM6 (endogenous, HCT-8 and HCT116 cells) (from UniProt Q9C030 1-488)”, in the assay with GST-tagged TIS21, the binding result is given as “binds”.
